Experimental data as given in patent publication US20180148504A1.

Tests used:
[1] = biological target: recombinant purified FRα (ECL assay calibrator) (human); assay: ECL sandwich standard curve on FRα calibrator
[2] = biological target: recombinant purified FRα (ECL assay calibrator) (human); assay: ECL sandwich standard curve, FRα calibrator titrated; capture 9F3; binder = detection Ab
[3] = biological target: recombinant purified FRα (ECL assay calibrator) (human); assay: ECL sandwich standard curve, FRα calibrator titrated; binder = capture Ab; detection 1A8.G11.E7, 24H8.D3, 19D2.G9, 19D4.B7 listed in the legend, not separable
[4] = biological target: recombinant human folate receptor alpha (rhFRα) (human); assay: direct ELISA on plate-coated FRα, hybridoma supernatants
[5] = biological target: recombinant purified FRα (ECL assay calibrator) (human); assay: ECL sandwich pair screening, calibrator and serum samples

| Binder | binding [1] | binding [2] | binding [3] | binding [4] | binding [5] |
| --- | --- | --- | --- | --- | --- |
| Monoclonal antibody 19D4.B7 (antibody, mouse IgG2a, V domains shown) VH: GARELVKPGASVKLSCTASGFNIKHPYMHWVKQRPDQGLEWIGRIDPANGNTKYDPKFQGKATITADTSSNTAYLQLSSLTSEDTAVYYCGREEVADYTMDYWGQGTSVTVSS VL: PASLAVSLGQRATISCRASESVDTYGNNFIHWYQQKPGQPPKLLIYLASNLESGVPARFSGSGSRTDFTLTIDPVEADDAATYYCQQNNGDPWTFGGGTKLEIKR | binds | binds | binds |  |  |
| Monoclonal antibody 1A8.G11.E7 (antibody, mouse IgG1, V domains shown) VH: ESGPGLVAPSQSLSITCTVSGFSLTSYGVSWVRQPPGKGLEWLGVIWGDGSTNYHSTLISRLSISKDNSKSQVFLKLNSLQTDDTATYYCAKPHPAATGAMDYWGQGTSVTVSS VL: TQTTSSLSASLGDRVTISCRASQDISNHLNWYQQKPDGTVKLLIYYTSRLHSGVPSRFSGSGSGTDYSLTISNLEQEDIATYFCQQGNTLWTFGGGTKLEIK |  | binds | binds | binds |  |
| Monoclonal antibody 24H8.D3 (antibody, mouse IgG1, V domains shown) VH: QVQLKESGPGLVAPSQSLSITCTVSGFSLTSYGVSWVRQPPGKGLEWLGVIWGDGSTNYHSTLISRLSISKDNSKSQVFLKLNSLQTDDTATYYCAKPHPAATGAMDYWGQGTSVTVSS VL: DIQMTQTTSSLSASLGDRVTISCRASQDISNHLNWYQQKPDGTIKLLIYYTSKLHSGVPSRFSGSGSGTDYSLTISNLEQEDIATYFCQQGNTLWTFGGGTKLEIK | binds | binds | binds | binds | binds |
| Monoclonal antibody 6A2.G7 (antibody, mouse IgG1, V domains shown) VH: GADLVKPGASVKMSCKASGYTFSRYNMHWVKQTPGQGLEWIGTIYPGNGDTSYNEKFKGKATLTADKSSSIVYMQVSSLTSEASAVYYCARDYGSRYALDYWGQGTSVTVSS VL: SSLSASLGDRVTISCRASQDISNYLNWYQQKPDGTVKLLIYYTSRLHSGVPSRFSGSGSGTDYSLTISNLEQEDIATYFCQQGNTLPYTFGGGTKLEIK |  |  |  | binds |  |
| Monoclonal antibody 26A9.C4 (antibody, mouse IgG1, V domains shown) VH: SGARELVKPGASVKLSCKTSGFTFSSSFISWLKQKPGQSLEWIAWIYGGNGGTSYNQNFTGKAQLTVDTSSSTAYMQFSSLTTEDSAVYYCASETYGNYWYFDVWGAGTTVTVSS VL: QSPASLSASVGDTVTITCRASGNIHNYLAWYQQKQGKSPQLLVYNAKTLADGVPSRFSGSGSGTQYSLKINSLQPEDFGNYYCQHFWSTPYTFGGGTKLEIK |  |  |  | binds |  |
| Monoclonal antibody 24H8.F3 (antibody, mouse IgG1, V domains shown) VH: GPGLVAPSQSLSITCTVSGFSLTSYGVSWVRQPPGKGLEWLGVIWGDGSTNYHSTLISRLSISKDNSKSQVFLKLNSLQTDDTATYYCAKPHPAATGAMDYWGQGTSVTVSS VL: TTSSLSASLGDRVTISCRASQDISNHLNWYQQKPDGTIKLLIYYTSKLHSGVPSRFSGSGSGTDYSLTISNLEQEDIATYFCQQGNTLWTFGGGTKLEIK |  |  |  | binds |  |
| Monoclonal antibody 1C6.E12.G8 (antibody, mouse IgG1, V domains shown) VH: SGARELVKPGASVKLSCKTSGFTFNSSYITWLKQKPGQSLEWIAWIYAGNGGTTYNQKFTGKAQLTVDTSSSTAYMQFSSLTTEDSAIYYCASETYTNYWYFDVWGSGTTVTVSS VL: QSPASLSASVGETVTITCRASGNIHNYLAWYQQKQGKSPQLLVYNAKTLADGVPSRFSGSGSGTQYSLKINSLQPEDFGSYYCQHFWSTPYTFGGGTKLEIK |  |  |  | binds |  |
| Monoclonal antibody 1D2.D8.G10 (antibody, mouse IgG1, V domains shown) VH: QSGTVLARPGASVKMSCKASGYSFTSNWMHWIKQRPGQGLEWIGAIYPGNSDTSYNQKFKGKAKLTAVTSASTAYMELSSLTNEDSAVYHCTRGDGSSFWYFDVWGAGTTVTVSS VL: QSPASLVVSLGQRATISCRASKSVSTSGYSYMYWYQQKSGQPPKLLIYLASNLESGVPARFSGGGSGTDFTLNIHPVEEEDAATYYCQQSRELPPTFGGGTKLEIK |  |  |  | binds |  |

Results are given in words; binding and its absence hold for the method and conditions named. Binding calls can cover weak binding; strength is not graded here.
